Measurements reported in PubChem BioAssay AID743121 (NCATS, 2013).
The whole screen tested about 26,000 reagents; shown is an unselected part. 167 of all reagents (0.63%) were called active. 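Calls are per gene from RSA p-values that are not deposited; an individual active-marked siRNA can sensitise only weakly.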 Reagents against one gene are numbered here. Not all columns of the deposit are shown.

- Test: 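Partners whose loss is lethal together with topoisomerase I blockade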 (primary screen)
- System: MDA-MB-231 cells, a human breast cancer line
- Knock-down reagent: single siRNA against human genes, 20 nM siRNA (0.8 pmol per well)
- Time to read-out: 120 h (drug added 48 h after transfection, read 72 h later)
- Conditions: camptothecin 20 nM (about EC30) for 72 h; vehicle 0.1% DMSO in parallel plates
- Measurement: 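Cell viability by ATP luminescence (CellTiter-Glo) as % of non-targeting siRNA wells, and the log2 ratio of viability without drug over viability with camptothecin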
- Direction: log2 vehicle/camptothecin viability: higher = stronger sensitisation to camptothecin; viability with camptothecin: higher = more viable cells
- Call rule: 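Active genes have an RSA gene-level p-value below 0.001, computed from the ratios of their separate siRNAs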

The opening 5 entries, ahead of the listing:
gene	siRNA no.	log2 vehicle/camptothecin viability	viability with camptothecin (% of control)	outcome
MC1R	1	0.198	50.8	inactive
MC1R	2	0.27	37.3	inactive
MC1R	3	-0.0955	41.4	inactive
MC1R	4	-0.576	86.4	inactive
LRP1	1	0.11	71.6	inactive

Main list, from the start:
gene	siRNA no.	log2 vehicle/camptothecin viability	viability with camptothecin (% of control)	outcome
MC1R	1	0.198	50.8	inactive
MC1R	2	0.27	37.3	inactive
MC1R	3	-0.0955	41.4	inactive
MC1R	4	-0.576	86.4	inactive
LRP1	1	0.11	71.6	inactive
LRP1	2	-0.0133	79.4	inactive
LRP1	3	-0.357	118	inactive
LRP1	4	0.128	79	inactive
GNS	1	-0.305	51.7	inactive
GNS	2	-0.155	55.5	inactive
GNS	3	-0.332	67.5	inactive
GGA1	1	-0.134	46.8	inactive
GGA1	2	-0.178	60.7	inactive
GGA1	3	0.0925	96.7	inactive
GGA1	4	-0.146	49.9	inactive
GGA1	5	-0.136	83.1	inactive
GGA1	6	-0.44	64.7	inactive
GGA1	7	-0.533	94.5	inactive
GGA1	8	0.245	32.7	inactive
ATP6AP2	1	-0.447	82.2	inactive
ATP6AP2	2	-0.131	34.6	inactive
ATP6AP2	3	-0.0192	96.7	inactive
ATP6AP2	4	-0.217	86.6	inactive
CLCN4	1	-0.788	64.8	inactive
CLCN4	2	-0.00814	75.3	inactive
CLCN4	3	-0.34	92.1	inactive
GDNF	1	-0.0091	60.7	inactive
GDNF	2	-0.363	92.5	inactive
GDNF	3	-0.314	92.1	inactive
GDNF	4	0.0113	121	inactive
CDK12	1	0.122	46.8	inactive
CDK12	2	0.54	60.6	inactive
CDK12	3	-0.22	73	inactive
CDK12	4	-0.0112	97.1	inactive
FGF23	1	-0.0975	104	inactive
FGF23	2	-0.26	83.2	inactive
FGF23	3	0.0163	33.7	inactive
FGF23	4	-0.223	72.4	inactive
ALKBH2	1	0.0287	91.6	inactive
ALKBH2	2	-0.279	93.1	inactive
ALKBH2	3	-0.34	109	inactive
RNF181	1	-0.139	110	inactive
RNF181	2	-0.15	101	inactive
RNF181	3	-0.214	123	inactive
RNF181	4	-0.168	66.6	inactive
PCSK7	1	-0.0921	108	inactive
PCSK7	2	-0.493	12.5	inactive
PCSK7	3	-0.107	54	inactive
TRPM2	1	0.00105	82.3	inactive
TRPM2	2	0.135	34.3	inactive
TRPM2	3	-0.45	48.5	inactive
NQO1	1	-0.156	95.6	inactive
NQO1	2	-0.275	78.6	inactive
NQO1	3	-0.198	63.1	inactive
NQO1	4	0.136	84.2	inactive
TSHB	1	-0.101	82.3	inactive
TSHB	2	-0.511	52.7	inactive
TSHB	3	-0.106	62.3	inactive
TSHB	4	-0.478	49.8	inactive
DDB1	1	-0.319	91.6	inactive
DDB1	2	-0.245	79.9	inactive
DDB1	3	-0.156	103	inactive
DDB1	4	-0.353	82	inactive
TAB2	1	1.03	24.4	active
TAB2	2	0.958	21.9	active
TAB2	3	1.42	16.9	active
TAB2	4	1.49	13.6	active
PLA2G12A	1	0.243	43.5	inactive
PLA2G12A	2	-0.18	78.6	inactive
PLA2G12A	3	-0.096	92.6	inactive
PSMB10	1	0.494	35.8	inactive
PSMB10	2	-0.697	54.6	inactive
PSMB10	3	-0.554	66.1	inactive
PSMB10	4	-0.124	42.7	inactive
PITRM1	1	0.11	96.7	inactive
PITRM1	2	-0.145	88.5	inactive
PITRM1	3	0.671	56.6	inactive
PITRM1	4	0.0194	47.4	inactive
EYA1	1	0.533	51.8	inactive
EYA1	2	0.3	75.7	inactive
EYA1	3	-0.365	98.4	inactive
EYA1	4	-0.217	89.4	inactive
HS3ST1	1	-0.223	122	inactive
HS3ST1	2	0.803	8.11	inactive
HS3ST1	3	-0.0771	70.9	inactive
HS3ST1	4	-0.407	55.9	inactive
LBP	1	0.35	57.3	inactive
LBP	2	0.975	15.7	inactive
LBP	3	-0.06	98.5	inactive
LBP	4	-0.278	83.5	inactive
